This is one part of the list. Rule as the data show it: active = 150% or more and inactive = the rest. Repeats are few or missing, and single values can be far off.
Test system: Staphylococcus aureus JE2-lux inside RAW 264.7 macrophages
Experiment: intracellular bacterial bioluminescence relative to DMSO vehicle; higher = higher intracellular bacterial metabolic activity
Conditions: 10 µM; treatment time 4 h; gentamicin 50 µg/ml
Description: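 RAW 264.7 macrophages infected with bioluminescent MRSA JE2-lux (MOI 100) were dispensed into 384-well plates with 10 µM compound in the presence of 50 µg/ml gentamicin. After 4 h at 37 °C, bacterial bioluminescence (a proxy for intracellular bacterial metabolic activity) and host cell viability (CellTiter-Fluor) were read and normalised to 0.1% DMSO vehicle controls. Single-pass screen of the UNC CICBDD kinase-targeted library (>4,700 compounds).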

Intracellular bacterial bioluminescence, inactive:
COCCNC(=S)NCCNc1nc2cc(C)cc(C)c2cc1C#N 69.7%
O=C(CC(=O)N/N=C/c1ccc(O)cc1)N/N=C\c1ccc(O)cc1 116%
CCOC(=O)C(C)Oc1cccc2c(=O)n(CC(=O)Nc3ccc(F)cc3F)ccc12 (stereo not given) 88.7%
Cc1ccc(-c2cc(=O)c3cc(NC(=O)c4ccccn4)ccc3o2)cc1 118%
O=C(CSCc1ccccc1)Nc1ccc2c3c(cccc13)CC2 49.8%
Cc1cc(C)c2nc(NCCNC(=S)NCCc3ccccc3)c(C#N)cc2c1 72.8%
CCc1cc(=O)n(CC(=O)NCCC(C)C)c2c1c(C)nn2-c1ccc(C)cc1 65%
CCOC(=O)c1nn(-c2ccc(F)cc2)c(=O)cc1NCc1cccnc1 115%
Cn1c(N2CCN(C(=O)c3cc(-c4cccs4)n[nH]3)CC2)cc(=O)n(C)c1=O 91.4%
COc1ccc(CNC(=O)c2c(C)oc3c2C(=O)c2ccccc2C3=O)cc1 96.9%
O=c1oc2ccccc2cc1-c1csc(-c2cc3cccc([N+](=O)[O-])c3oc2=O)n1 130%
CCOC(=O)c1ccc(Oc2ncnc(N)c2[N+](=O)[O-])cc1 86.7%
Cc1c(N2CCN(C(=O)Cc3ccc(F)cc3)CC2)c(=O)n(CC(C)C)c(=O)n1-c1ccccc1 54.8%
CCOC(=O)c1c(C)[nH]c(C(=O)N/N=C\c2ccccc2O)c1C 96%
COC(=O)c1ccc(C(=O)/N=c2/sc3cc(F)ccc3n2C)cc1 106%
CCc1ccc2nc(NCCNC(=O)COC)c(C#N)cc2c1 99.1%
CCC1CCCCN1S(=O)(=O)c1ccc(C(=O)Nc2nc3c(s2)Cc2ccccc2-3)cc1 (stereo not given) 87.2%
O=C(CSc1nnc2ncccn12)Nc1cccc2ccccc12 91.4%
Cc1cc(-n2c(C)nc3ccccc3c2=O)ccc1NC(=O)c1cncc(Br)c1 63%
O=C(CC1CCCC1)NCCn1nc(-c2cccs2)oc1=O 92.4%
C#CCn1/c(=N/C(=O)c2ccco2)sc2cc(NC(C)=O)ccc21 85%
O=[N+]([O-])c1ccc(S(=O)(=O)N2CCN=C2SCc2cccnc2)cc1 32.4%
COc1ccc(-c2cc3nc(C)cc(N4CCN(c5nc(C)cc(C)n5)CC4)n3n2)cc1OC 121%
CCN(CC)S(=O)(=O)c1ccc(-c2nnc(SC(C)C(=O)OC)o2)cc1 (stereo not given) 43.3%
CCOC(=O)c1nn(-c2ccccc2)c(=O)cc1NCc1ccccn1 95.7%

Quoted at random: two compounds from above.
Intracellular bacterial bioluminescence, inactive:
CCOC(=O)C(C)Oc1cccc2c(=O)n(CC(=O)Nc3ccc(F)cc3F)ccc12 (stereo not given) 88.7%
Cc1ccc(-c2cc(=O)c3cc(NC(=O)c4ccccn4)ccc3o2)cc1 118%
